The results in this text go back to patent US9533946B1, “N-carbamoylputrescine to enhance muscle protein synthesis” (CITRAGE, priority 2016, dated 2017).

The series is described as follows: Plasma biological parameters after NCP-supplemented diet in rats. It counts as in vivo. On the procedure: Eight-week old Sprague-Dawley rats (Charles Rivers, Lyon, France) were used. They were placed in individual cages and acclimatized for two weeks to our animal facility. During this period they received standard rodent chow (A04, UAR, Villemoisson-sur-Orge, France) and water ad libitum.
After acclimatization twenty eight-month old rats were randomized into three groups in order to receive for two weeks a standard diet either alone (n=6; control group) or supplemented with NCP either 5 mg/kg/d (n=7, NCP5 group) or 50 mg/kg/d (n=7; NCP50 group). Their weight, behaviour and mortality were monitored throughout the feeding period.
At the end of the feeding period, the rats, in the fasted state, were anesthetized by isoflurane inhalation and euthanized by decapitation.
Mixed blood was collected onto heparinized tubes and rapidly centrifuged. The liver was immediately removed and weighed, and a sample was cut off, frozen in liquid nitrogen, and stored at −80° C. until analysis. For the jejunum and ileum, the intestine was washed with cold NaCl (0.9%) and reverted. Thereafter the intestinal mucosa was scraped, rapidly frozen in liquid nitrogen, and stored at −80° C. until analysis. Two muscles of the hindlimb, tibialis (rich in type II fibres) and soleus (rich in type I fibres), and the right kidney were rapidly removed, weighed, frozen in liquid nitrogen, and stored at −80° C. until analysis. Body composition was assessed by dissection and lean mass (carcass), visceral fat mass, sub-cutaneous fat mass (subcutaneous fat and skin) and mass of the viscera were determined.
Biological parameters studied were: • in tissues: NCP, protein and amino acid contents • in plasma: amino acids, liver function tests (plasma aspartate aminotransferase, alanine aminotransferase, alkaline phosphatase, and bilirubin), muscle enzymes (plasma creatine kinase, and lactate dehydrogenase), plasma electrolytes (sodium, potassium, chloride, bicarbonates), total protein, urea, creatinine, calcium, phosphate, magnesium, uric acid, glucose, cholesterol and triglycerides. […]

On to `NCCCCNC(N)=O` [NCP, 1-(4-aminobutyl) urea], for which, where the note is “NCP 5 and 50 mg/kg/d vs control”, the “other plasma amino acids” value is “No differences”. Besides, under “NCP 5 and 50 mg/kg/d, p=0.06”, the “plasma glutamine, dose-effect relationship” value is given as “trend for a NCP dose-effect relationship”. For the same compound, for the setting “NCP50 group vs controls, FIG. 1”, the plasma glutamine levels entry is recorded as “significantly lower”.
